The target of one test is T1, Activin B (UniProt P09529).
T1 sequence (looked up): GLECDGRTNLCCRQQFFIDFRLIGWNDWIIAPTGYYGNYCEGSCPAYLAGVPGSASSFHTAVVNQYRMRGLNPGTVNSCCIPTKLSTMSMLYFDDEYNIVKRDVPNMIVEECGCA
In words: ELISA, Activin B coated on the plate, CR-Fc detected with anti-Fc-alkaline phosphatase.

In test [1] the target is T2, CR-Fc (UniProt P13385 31-169).
T2 construct: not shown: Fc part; not described
T2 sequence (looked up): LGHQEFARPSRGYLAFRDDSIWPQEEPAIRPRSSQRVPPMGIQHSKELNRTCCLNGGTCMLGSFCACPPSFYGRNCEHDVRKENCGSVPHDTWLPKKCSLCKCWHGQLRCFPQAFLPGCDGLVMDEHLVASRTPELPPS
In words: competition ELISA: CR-Fc pre-incubated with Activin B in solution, then added to an Activin B coated plate. In general terms: ELISA stands for enzyme-linked immunosorbent assay.

Test [2] has as its target T2, CR-Fc. The experiment in a line: Biacore, CR-Fc immobilized on the chip. On the technique in general: In SPR one partner is held on a chip, and binding of the other changes the refractive index at the surface.

Consider two molecules from US20050255117A1 (Biogen, published 2005).

These are yes or no findings as the source states them, for the method shown. Some entries that bind do so weakly or less than the wild type.

Regarding “CR-Fc (from UniProt P13385 31-169) (Fc fusion)”, the binding result with Activin B was “binds”.

B1: Activin B (ligand, UniProt P09529 293-407, looked up)
chain: GLECDGRTNLCCRQQFFIDFRLIGWNDWIIAPTGYYGNYCEGSCPAYLAGVPGSASSFHTAVVNQYRMRGLNPGTVNSCCIPTKLSTMSMLYFDDEYNIVKRDVPNMIVEECGCA
For B1, the binding entry in the test with CR-Fc [1] and with CR-Fc [2] was “binds” in each case.
